Assay results as given in PubChem BioAssay AID493014 (National Center for Advancing Translational Sciences (NCATS), 2011).
The other results are listed elsewhere or left out. Shown are side measurements of this screen, not its main read-out; they come without a call. The list favours compounds with an active or inconclusive main result. Potencies come from curve fits of mixed quality, noted in brackets.

Experiment: qHTS Assay to Find Inhibitors of Chronic Active B-Cell Receptor Signaling
Settings: ABC-DLBCL IkBa-CBG/CBR reporter, luminescence ratio (green luciferase fused to IkBa over red control in TMD8 lymphoma cells), 4 h
Procedure, shortened: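 Compounds up to 46 uM were incubated four hours with TMD8 cells whose green CBG68 luciferase is fused to IkappaBalpha; red CBR luminescence normalised the signal, and concentration-effect curves were fitted to fusion, red and ratio data.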

[1] = measured here: CBR red luminescence, cell number
[2] = measured here: IkBa-CBG green luminescence

SMILES | AC50 [1] | AC50 [2]
Cc1cc(C(=O)N/N=C/c2cccc([N+](=O)[O-])c2)c(C)n1-c1ccccc1 | 11.6 µM [rising, partial curve] | 
C/C(CC(=O)Nc1cccc2c1CCCC2)=N\NC(=O)c1ccccc1N | 15.8 µM [falling, partial curve] | 
CC(/C=C/c1ccccc1)=N\NC(=O)CSc1ccccn1 | 4.11 µM [rising, single point] | 
COc1ccc(-c2cc(C(=O)NN)[nH]n2)cc1 | 18.4 µM [rising, partial curve] | 29.1 µM [falling, single point]
S=C(NCCc1ccccn1)NC1CC2CCC1C2 (stereo unspecified) | 2.51 µM [rising, partial curve] | 
O=C(c1ccccc1)c1c[nH]c2ccccc12 | 2.51 µM [rising, full curve, poor fit] | 
CC(CC(=O)c1cccs1)CC(=O)c1cccs1 | 3.26 µM [rising, full curve, poor fit] | 
O=C(NC1CC2CCCC(C1)N2C(=O)Nc1ccccc1)c1ccncc1 (stereo unspecified) | 29.1 µM [falling, single point] | 25.9 µM [rising, partial curve, poor fit]
Cc1ncc(CN2CCC(CO)(CCc3ccccc3)CC2)s1 | 25.1 µM [falling, partial curve, poor fit] | 
Nc1nc(-n2cnnc2)nn1-c1ccccc1 | 0.517 µM [falling, full curve, poor fit] | 
COc1ccc(CNC(=O)C2CCN(S(=O)(=O)c3cccc4nsnc34)CC2)cc1 | 12.6 µM [falling, partial curve, poor fit] | 
O=C(NNC(=O)c1ccc(NC(=O)c2ccccc2)cc1)c1ccc(F)cc1 | 10 µM [rising, partial curve, poor fit] | 
NC(=O)c1ccccc1-c1nc(-c2ccccc2)no1 | 35.5 µM [falling, single point] | 
CC(=O)c1ccc(NC(=S)N2CCC(Cc3ccccc3)CC2)cc1 | 20 µM [falling, single point] | 
C=CCn1cccc(/C=C/C(=O)c2ccc(C(C)(C)C)cc2)c1=S | 20.6 µM [falling, single point] | 
CN(C)/C=C(\C#N)C(=O)c1cccc(Oc2ccc(Br)cc2)c1 | 0.501 µM [rising, full curve, poor fit] | 
CSc1ccc(Cl)c(C(=O)Nc2ccc(C)cn2)c1 | 17.8 µM [falling, single point] | 
O=C(N/N=C/c1ccc(Br)s1)c1cccs1 | 14.1 µM [falling, partial curve] | 
CC(Oc1ccc(Br)cc1)C(=O)NC1CCCCCC1 (stereo unspecified) | 0.82 µM [rising, full curve, poor fit] | 
COc1ccc(NC(=O)NN2CCN(C)CC2)cc1OC | 17.8 µM [rising, partial curve, poor fit] | 
CC(C)(C)OC(=O)[C@H](Cc1ccccc1)NC(=O)c1nc[nH]c1C(=O)NCCCCCN | 23.1 µM [falling, partial curve] | 

Single values from the results shown:
AC50 [1] with COc1ccc(-c2cc(C(=O)NN)[nH]n2)cc1 is entered as 18.4 µM [rising, partial curve]
AC50 [1] with Cc1cc(C(=O)N/N=C/c2cccc([N+](=O)[O-])c2)c(C)n1-c1ccccc1 is entered as 11.6 µM [rising, partial curve]
AC50 [1] with CC(/C=C/c1ccccc1)=N\NC(=O)CSc1ccccn1 is entered as 4.11 µM [rising, single point]

Additional entries:

SMILES | AC50 [1] | AC50 [2]
Cc1c(NC(=O)CSc2nnnn2Cc2ccccc2)c(=O)n(-c2ccccc2)n1C | 3.55 µM [rising, partial curve, poor fit] | 
Cc1ccccc1OCCn1cc(C(=O)C(=O)N2CCOCC2)c2ccccc21 | 1.58 µM [falling, full curve, poor fit] | 
N#C/C(C(=O)N1CCCCC1)=C1\Nc2ccccc2S1 | 1.84 µM [falling, full curve] | 
C=CCSC1=N/C(=C\c2sccc2C)C(=O)S1 | 22.4 µM [rising, single point] | 
Cc1ccc(Cn2cccc(-c3nc4ccccc4s3)c2=O)cc1 | 32.6 µM [falling, single point] | 
Clc1ccccc1-c1nnc2sc(-c3ccc4c(c3)OCO4)nn12 | 5.8 µM [falling, partial curve] | 
C/C(=C\c1cccs1)C(=O)c1c(C)cc(C)[nH]c1=O | 22.4 µM [rising, single point] | 
COc1ccc(C(=O)COC(=O)c2cccs2)cc1 | 29.1 µM [falling, single point] | 
OCCNc1nc(Nc2ccccc2)nc2ccccc12 | 16.4 µM [falling, partial curve] | 
CN(CC(=O)N1CCCC1)S(=O)(=O)c1ccc(Cl)cc1 | 3.66 µM [rising, partial curve, poor fit] | 
N#CCc1c(C#N)c(N)nc(Nc2ccccc2)c1C#N | 17.8 µM [rising, partial curve] | 35.5 µM [falling, single point]
COC(=O)c1ccc(S(=O)(=O)N2CCN(C(c3ccccc3)c3ccccc3)CC2)n1C | 28.2 µM [rising, single point] | 
CCCCc1ccc(NC(=O)c2cnccn2)cc1 | 7.94 µM [falling, partial curve, poor fit] | 
COc1ccc(C(=O)COC(=O)c2cc([N+](=O)[O-])ccc2N2CCOCC2)c(OC)c1 | 13 µM [rising, partial curve, poor fit] | 25.9 µM [falling, partial curve, poor fit]
Cc1nn2cc(-c3ccc(Cl)cc3)cnc2c1Br | 0.0891 µM [rising, full curve, poor fit] | 
CCOc1ccc(CCNC(=O)CCS(=O)(=O)c2ccc(Br)cc2)cc1OCC | 0.1 µM [rising, full curve, poor fit] | 
Cn1c(Sc2nc3ccccc3n2C)nc2ccccc21 | 22.4 µM [falling, single point] | 
O=C(NCc1ccccc1CN1CCCC1)c1cc2ccccc2o1 | 29.1 µM [falling, single point] | 
COC(=O)CCC(=O)NC(=S)Nc1sc(C)c(C)c1C(N)=O | 20.6 µM [rising, partial curve] | 5.8 µM [falling, full curve]
Cc1cccc(NC(=O)Cn2c(=O)n(C)c3ccccc32)c1 | 1.84 µM [rising, partial curve, poor fit] | 
CC(C)Sc1ccccc1C(=O)Nc1ccc2c(c1)n(C)c(=O)n2C | 14.1 µM [rising, partial curve] | 11.2 µM [falling, partial curve]

SMILES | AC50 [1] | AC50 [2]
Cc1ccc(-n2c(SCC(=O)NCc3ccco3)nc3c(sc4ccccc43)c2=O)cc1 | 29.1 µM [falling, single point] | 
Cc1ccc(N=Cc2c(O)c3ccccc3n(C)c2=O)cc1 | 35.5 µM [falling, single point] | 
CC1(C)C2CCC1(C)C(OCC[N+](C)(C)CC(=O)OC1CCCCC1)C2 (stereo unspecified) | 8.2 µM [falling, partial curve] | 
CCn1c(SCC(=O)Nc2ccccc2C(=O)OC)nnc1-c1ccc(N)cc1 | 35.5 µM [falling, single point] | 
Cc1cccc(C(=O)N[C@@H](C)C(=O)N2CCN(c3ncccn3)CC2)c1 | 4.11 µM [rising, full curve, poor fit] | 
CO/N=C(/CS(=O)c1ccc(Br)cc1)c1ccc(OC)cc1 (stereo unspecified) | 4.11 µM [rising, partial curve, poor fit] | 
Cc1[nH]c2ccccc2c1-c1csc(NC(=O)CSCCO)n1 | 14.1 µM [rising, single point] | 
CCOC(=O)c1cnc(Nc2nc3ccccc3o2)nc1CN1CCN(C)CC1 | 12.6 µM [falling, partial curve, poor fit] | 
O=C(NCc1cccnc1)c1cc(-c2ccco2)on1 | 11.2 µM [falling, single point] | 
CC(OC(=O)c1ccco1)C(=O)Nc1ncc(Cl)cc1Cl (stereo unspecified) | 7.31 µM [rising, partial curve, poor fit] | 
O=c1c2ccccc2[nH]c(=S)n1CCCN1CCOCC1 | 1.84 µM [rising, single point] | 
O=C(CCSCc1ccccc1)Nc1ccc2c(c1)OCCO2 | 3.16 µM [rising, partial curve, poor fit] | 
COc1ccc(S(=O)(=O)N2CCOCC2)cc1NC(=O)CSc1n[nH]c(=O)n1C1CC1 | 0.517 µM [falling, full curve] | 
C#CCOc1ccc(C2C3=C(COC3=O)Nc3cc4c(cc32)OCO4)cc1OC (stereo unspecified) | 0.1 µM [rising, full curve, poor fit] | 0.224 µM [falling, full curve]
CC(C)(C)[C@H]1C=C(C(=O)NCc2nc3ccccc3[nH]2)O[C@@H](OCCCCO)C1 | 0.0891 µM [rising, full curve, poor fit] | 
O=C(CSc1nc2[nH]ncc2c(=O)[nH]1)c1ccccc1 | 3.98 µM [falling, full curve] | 
C=CC[C@@H](CC(=O)N(CCO)Cc1ccccc1)C(=O)N[C@H](C)COC(=O)[C@@H](CC=C)Cc1ccc(F)cc1 | 29.1 µM [falling, single point] | 
Cc1ccccc1C1=N/C(=C/c2cccs2)C(=O)O1 | 35.5 µM [falling, single point] | 
CCOc1ccc(S(=O)(=O)N(C)c2ccc(OCC(=O)Nc3nccs3)cc2)cc1 | 14.1 µM [falling, single point] | 
Cc1ccc(-c2nn(-c3ccccc3)cc2CO)cc1 | 0.316 µM [rising, full curve] | 
COc1cc(F)cc(-c2ccc3c(c2)c(-c2cccs2)c(-c2cc(OC)cc(OC)c2)n3C)c1 | 29.1 µM [rising, single point] | 29.1 µM [falling, single point]
